A short description of the assay: qHTS Assay for Lipid Storage Modulators in Drosophila S3 Cells.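 For cell number change: cells counted by Cell Tracker Red CMTPX staining in the red channel.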 Conditions: BODIPY lipid droplet fluorescence, 18-24 h; for cell number change: measured here: cell count max response, cells fed with added oleic acid. In a few lines: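 Laser-scanning cytometry quantifies lipid droplet accumulation (500–530 nm total intensity; droplet/cell object ratio) in oleic acid-fed (400 uM added) Drosophila S3 cells treated with a concentration series. 20 uM Triacsin C defined 100% inhibition.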
Background: In qHTS, concentration-response curves come from the screen itself.

The mark [1] stands for this setting: measured here: cell number channel AC50, cells fed with added oleic acid.
Setting [2] is: measured here: lipid fluorescence (Fed channel) AC50, cells fed with added oleic acid.

The structures appear in SMILES notation. Some of the results follow. These are further read-outs of the screen, such as a control signal, another cell line or another target. No call is given for them. Compounds called inactive in the main read-out are mostly missing here. Words in brackets tell the shape of the fitted curve; partial curves, single points and poor fits give uncertain potencies.

Consider 55 compounds from PubChem BioAssay AID2685 (National Center for Advancing Translational Sciences (NCATS), 2010).

By AC50 is commonly meant the midpoint of the concentration-response curve, whichever way the signal moves.

On to `Nc1nc(NCc2ccccc2)nc(-c2ccccc2)n1`, for which the cell number change amounted to 5.88%. The concentration at half-maximal activity (AC50) under setting [1] is 5.17 µM [rising, single point]. The AC50 under setting [2] was 5.8 µM [rising, full curve].

In the case of `COc1ccc(CC(=O)OC(C)CN2CCOCC2)cc1` (stereo not given), the cell number change stood at 0.186%. Moreover, the AC50 under setting [2] was 6.51 µM [falling, single point].

For `COC(=O)c1ccc(N2C(=O)C3CC=CC(C)C3C2=O)cc1` (stereo not given), the cell number change is -11.6%. In addition, the AC50 under setting [2] was 8.2 µM [falling, partial curve].

For `COc1cccc(NC(=O)CCS(=O)(=O)c2cc3c(cc2Cl)NC(=O)CO3)c1`, the cell number change is -10.3%. Moreover, the concentration at half-maximal activity (AC50) under setting [2] is 29.1 µM [falling, single point].

In the case of `Cc1ccc(C(=O)NCc2ccccn2)cc1Cl`, the cell number change came to 8.84%. Moreover, the half-maximal activity concentration (AC50) under setting [2] is 4.11 µM [rising, single point].

As for `C=C1c2cc(C)ccc2NC(=O)N1c1ccccc1`, the cell number change was 1.12%. The AC50 under setting [1] is 0.326 µM [falling, single point].

Turning to `O=C(C(Cc1ccccc1)N1C(=O)C2C3C=CC(C3)C2C1=O)N1CCCCC1` (stereo not given), the cell number change is -12.4%. The half-maximal activity concentration (AC50) under setting [2] was 0.0058 µM [falling, full curve, poor fit].

With `CCCS(=O)(=O)N1CCCC(c2nc(-c3ccc(OC)cc3)no2)C1` (stereo not given), the AC50 under setting [2] was 6.51 µM [rising, single point].

As for `O=C(CN1C(=O)NC2(CCc3ccccc3C2)C1=O)NCc1ccco1` (stereo not given), the cell number change was -5.66%. Besides, the AC50 under setting [1] was 0.13 µM [rising, full curve, poor fit]. The concentration at half-maximal activity (AC50) under setting [2] is 0.116 µM [rising, full curve, poor fit].

With `NS(=O)(=O)c1ccc(NC(=O)C2Cc3ccccc3C(=O)O2)cc1` (stereo not given), the cell number change was found to be 19.4%.

In the case of `O=C(NCc1nnc(SCC(=O)N2CCc3ccccc32)o1)c1ccco1`, the cell number change was 23.9%. In addition, the half-maximal activity concentration (AC50) under setting [1] was 3.66 µM [rising, full curve, poor fit]. The AC50 under setting [2] is 2.59 µM [rising, full curve, poor fit].

`O=C(CNc1cccc2ccccc12)N/N=C/C=C/c1ccco1`: the cell number change stood at 21.3%. In addition, the AC50 under setting [2] is 6.51 µM [rising, full curve, poor fit].

On to `Cc1ccc(Sc2ccc(CN3CCCCC3)cc2[N+](=O)[O-])cc1`, for which the cell number change was -12.6%. Under setting [2], the AC50 was 25.9 µM [falling, partial curve, poor fit].

For the compound `CCCCn1c(N)c(N(CC(C)C)C(=O)c2ccc([N+](=O)[O-])o2)c(=O)[nH]c1=O`, the cell number change was found to be 15.8%. Under setting [2], the AC50 was 0.082 µM [falling, full curve, poor fit].

For `CCC(C)(C)NC(=O)C(c1ccc(OC)cc1)N(C(=O)CCC(=O)Nc1cc(C)on1)c1ccc(F)cc1` (stereo not given), the cell number change came to 5.83%.

On to `O=C(NCCc1ccccc1)C(=O)NCCC1CCCCN1S(=O)(=O)c1ccccc1` (stereo not given), for which the cell number change was 5.94%. Moreover, the AC50 under setting [2] was 0.651 µM [rising, partial curve, poor fit].

As for `CCOC(=O)C1=C(C)N(C)C(=O)NC1c1ccccc1OC` (stereo not given), the cell number change was -5.4%. Under setting [1], the half-maximal activity concentration (AC50) is 0.082 µM [falling, full curve, poor fit].

For the compound `CCOc1ccc(N2C(=O)CC(NC3CCN(C(=O)c4cccc(Cl)c4)CC3)C2=O)cc1` (stereo not given), the cell number change is -15%.

As to `Cc1ccc(C(=O)N[C@H](C(=O)OCC(=O)Nc2cccc(S(N)(=O)=O)c2)C(C)C)cc1`, the cell number change was 11.6%. Also, under setting [1], the AC50 was 1.64 µM [falling, partial curve]. Besides, the half-maximal activity concentration (AC50) under setting [2] is 2.06 µM [falling, partial curve, poor fit].

For the compound `COc1cccc(C(=O)C2CN(c3ccccc3)CC2c2ccc(Cl)cc2)c1` (stereo not given), the cell number change is -14.3%. Also, the half-maximal activity concentration (AC50) under setting [2] was 2.06 µM [rising, partial curve].

As for `O=C1CCC(C(=O)O)(c2ccccc2)C1` (stereo not given), the cell number change was 2.49%. Moreover, the half-maximal activity concentration (AC50) under setting [1] is 0.0291 µM [rising, full curve, poor fit]. The AC50 under setting [2] was 1.84 µM [rising, single point].

On to `COc1ccc(NC(=O)COc2ccccc2C#N)c(S(=O)(=O)N2CCCCC2)c1`, for which the cell number change is -52%. The half-maximal activity concentration (AC50) under setting [1] is 29.1 µM [falling, single point]. For the same compound, the AC50 under setting [2] was 29.1 µM [falling, partial curve].

In the case of `CCN(CC)S(=O)(=O)c1ccc(S(=O)(=O)Nc2c(C)nn(C)c2C)cc1`, the cell number change is -41%. Moreover, the half-maximal activity concentration (AC50) under setting [1] was 8.2 µM [falling, full curve]. Besides, the half-maximal activity concentration (AC50) under setting [2] is 6.51 µM [falling, partial curve].

Take `O=C(CN1C(=O)CCS(=O)(=O)c2ccccc21)Nc1ccc(F)cc1`: the cell number change was 25.6%. Under setting [1], the AC50 was 0.13 µM [rising, full curve, poor fit].

Turning to `Cc1nc2sc(C(c3ccco3)N3CCN(C(c4ccccc4)c4ccccc4)CC3)c(O)n2n1` (stereo not given), the cell number change was -155%. The AC50 under setting [1] was 2.31 µM [rising, partial curve].

With `COc1ccc(Cc2nnc(SCC(=O)Nc3cc(Cl)ccc3OC)[nH]c2=O)cc1`, the cell number change was found to be 72.1%. Moreover, the AC50 under setting [1] was 14.6 µM [rising, partial curve].

As for `CCOC(=O)N1CCN(CC(=O)Nc2cc(OC)c(OC)cc2C#N)CC1`, the cell number change is -4.75%. For the same compound, the AC50 under setting [1] is 0.461 µM [rising, full curve, poor fit].

Consider `CC(NC(=O)C12CC3(C)CC(C)(CC(C)(C3)C1)C2)C(=O)O` (stereo not given), for which the cell number change was -26.1%. The concentration at half-maximal activity (AC50) under setting [1] is 0.146 µM [rising, full curve]. Further, the concentration at half-maximal activity (AC50) under setting [2] is 0.13 µM [rising, full curve, poor fit].

Take `COc1cccc(NC(=O)CCC2CCN(C(=O)c3ccc(C(C)=O)s3)CC2)c1`: the cell number change worked out at 1.42%. In addition, under setting [2], the AC50 was 10.3 µM [rising, partial curve].

With `COc1ccc(NC(=O)CN(C)C(=O)c2ccc(N3CCCC3)c([N+](=O)[O-])c2)cc1`, the cell number change stood at 4.36%.

In the case of `CCCCNC(=O)C1CCN(S(=O)(=O)c2ccc3c(c2)CC(C)N3C(=O)C2CC2)CC1` (stereo not given), the cell number change was determined as 19.2%. Also, under setting [2], the AC50 was 6.51 µM [falling, single point].

Consider `COc1ccc(/C=C/C(=O)N(C)c2ccccc2C(=O)O)cc1`, for which the cell number change was -90.9%. Also, under setting [1], the AC50 is 32.6 µM [falling, partial curve, poor fit]. Also, the AC50 under setting [2] was 32.6 µM [falling, partial curve].

With `CC(=O)c1c(C(C)=O)c(C)n(-c2ccc(C(=O)O)cc2)c1C`, the cell number change was -48.8%. Moreover, the AC50 under setting [1] was 3.26 µM [falling, full curve]. Besides, under setting [2], the half-maximal activity concentration (AC50) was 0.13 µM [falling, full curve].

For the compound `CC(=O)Nc1ccc(S(=O)(=O)NCc2ccc(C)n2C)cc1`, the cell number change was -9.21%. The AC50 under setting [2] is 35.5 µM [falling, single point].

For `CC12CC(O)C3c4ccc(O)cc4CCC3C1CCC2=O` (stereo not given), the cell number change was -19%. For the same compound, under setting [1], the concentration at half-maximal activity (AC50) is 2.06 µM [falling, partial curve, poor fit].

Take `C=CCNC(=O)COC(=O)CCC(=O)c1cccs1`: the cell number change was -7.16%. In addition, the AC50 under setting [2] is 0.00517 µM [falling, full curve].

With `Cc1ccc(N2CCN(/N=C/C(Cl)=C/c3ccccc3)CC2)cc1`, the AC50 under setting [1] is 0.00461 µM [rising, full curve, poor fit].

With `Nc1nc2ccccc2n1/N=C/c1ccc([N+](=O)[O-])s1`, the cell number change was -14.7%. For the same compound, the concentration at half-maximal activity (AC50) under setting [2] was 9.2 µM [falling, partial curve].

Regarding `CCCCc1c(O)nc(SCC(=O)Nc2cccc3ccccc23)n(-c2ccccc2OC)c1=O`, under setting [2], the half-maximal activity concentration (AC50) is 29.1 µM [falling, single point].

On to `N#C/C(=C\Nc1ccccc1SC(F)(F)F)c1nc(-c2ccc(F)cc2)cs1`, for which the cell number change is -12.7%. In addition, the AC50 under setting [2] is 6.51 µM [falling, single point].

As for `COc1ccc([N+](=O)[O-])cc1N1C(=O)c2cccc3cccc(c23)C1=O`, the AC50 under setting [1] is 0.411 µM [falling, single point].

`CCC(C)NC(=O)CN(c1cc(C)ccc1OC)S(C)(=O)=O` (stereo not given): the cell number change was -3.36%. Moreover, the half-maximal activity concentration (AC50) under setting [2] was 0.461 µM [falling, single point].

Consider `CCCCCCNCc1c(F)cccc1Cl`, for which the cell number change was -3.14%.

Take `CC1=C(C(=O)Nc2cc(C(=O)N(C)Cc3ccccc3)ccc2C)SCCO1`: the cell number change was -15.9%. Besides, the AC50 under setting [1] is 0.103 µM [falling, partial curve, poor fit]. Under setting [2], the AC50 is 29.1 µM [falling, single point].

For `CNC(=O)NC(=O)CSc1ccc(S(=O)(=O)N(C)C2CCCCC2)cn1`, the cell number change was -5.77%. For the same compound, under setting [1], the half-maximal activity concentration (AC50) is 1.03 µM [falling, full curve]. Also, the concentration at half-maximal activity (AC50) under setting [2] is 29.1 µM [rising, single point].

Consider `CCOC(=O)NC(=S)Nc1cccc(NC(=S)NC(=O)OCC)c1`, for which the cell number change is 17.1%. Besides, under setting [2], the AC50 was 0.00461 µM [rising, full curve, poor fit].

On to `CCOc1ccc(C(CC(=O)O)NS(=O)(=O)c2ccc(C)cc2)cc1OC` (stereo not given), for which the cell number change turned out to be 7.27%. Moreover, the concentration at half-maximal activity (AC50) under setting [2] is 0.058 µM [falling, full curve, poor fit].

In the case of `O=C(c1ccc(Cl)cc1)C1CCN(C(=O)c2ccc(F)cc2)CC1`, the cell number change is -29.1%.

For the compound `COc1ccc(C/C(N)=N/OC(=O)COc2ccccc2C)cc1`, the cell number change is 28.7%. The AC50 under setting [2] was 18.4 µM [rising, partial curve].

As to `CCC(=O)Nc1nnc(SCC(=O)NCCc2ccc(OC)c(OC)c2)s1`, the cell number change came to 48.3%. Besides, under setting [1], the AC50 was 18.4 µM [rising, single point]. Also, the AC50 under setting [2] is 14.6 µM [rising, partial curve].

Take `Cc1cccc(-n2cnc3c(c2=O)c2nc4ccccc4nc2n3Cc2ccco2)c1`: the cell number change turned out to be 0.714%. In addition, under setting [2], the concentration at half-maximal activity (AC50) is 0.92 µM [rising, partial curve].

For the compound `COC(=O)c1c(C)[nH]c(C(=O)/C=C/c2ccc(Cl)cc2)c1C`, the cell number change is -60%. Moreover, the AC50 under setting [1] was 20.6 µM [falling, partial curve]. Under setting [2], the half-maximal activity concentration (AC50) was 20.6 µM [falling, single point].

Turning to `COc1ccc(OCCCC(=O)OC(C)C(=O)Nc2ccc(C)cc2)cc1` (stereo not given), the cell number change is -21.6%. The concentration at half-maximal activity (AC50) under setting [2] was 14.6 µM [falling, partial curve].

For `CN(C)S(=O)(=O)c1ccc(N2CCCC2)c(C(=O)NNC(=O)COc2cccc(F)c2)c1`, the cell number change came out at 38.1%. The half-maximal activity concentration (AC50) under setting [1] was 23.1 µM [rising, single point]. For the same compound, under setting [2], the AC50 is 32.6 µM [rising, partial curve, poor fit].

Consider `COc1ccc(OC)c(NC(=O)c2cccc(S(=O)(=O)N(Cc3ccccc3)c3ccccc3OC)c2)c1`, for which the cell number change was -0.317%. Also, under setting [2], the AC50 was 0.58 µM [rising, full curve].
